Source: PMC8795376
Results are given in words; binding and its absence hold for the method and conditions named. For some of these results: In cells and extracts the contact can be indirect. Some binding calls cover weakened binding; strength is not graded here. For some of these results: Tags and fused reporters may be left off the sequences shown. Blank lines part the entries; values can stand above or below the molecule they belong to.

Chains of the proteins cited; added tags and fusions are not shown. Residues count along the entry.
UniProt O43567, residues 35-381: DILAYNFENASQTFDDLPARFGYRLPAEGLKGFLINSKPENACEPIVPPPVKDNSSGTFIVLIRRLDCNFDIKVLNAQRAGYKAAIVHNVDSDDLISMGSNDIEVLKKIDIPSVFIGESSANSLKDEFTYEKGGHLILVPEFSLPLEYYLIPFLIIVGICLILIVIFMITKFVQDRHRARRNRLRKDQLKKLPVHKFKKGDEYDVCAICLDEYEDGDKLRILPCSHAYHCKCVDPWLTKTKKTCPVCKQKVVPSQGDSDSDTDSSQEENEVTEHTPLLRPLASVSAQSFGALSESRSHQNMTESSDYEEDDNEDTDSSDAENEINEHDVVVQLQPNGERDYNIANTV

Columns and labels:
HaloTag-fused RNF13 = HaloTag-fused RNF13 (UniProt O43567); assay: co-IP; HepG2 cells expressing the indicated proteins (HT-RNF13, wild-type or CRD-deleted GAL9), precipitated with anti-HT antibody, immunoblotting
[1] = target: FLAG-GAL9 (galectin-9) (human) (UniProt O00182); assay: co-IP; HepG2 cells expressing FLAG-GAL9 and the indicated HaloTag-fused proteins; lysates precipitated with anti-FLAG antibody, immunoblotting
[2] = target: GAL9 (galectin-9), recombinant (UniProt O00182); assay: pull-down; in vitro pull-down with recombinant HBc and GAL9 incubated with viperin; anti-HBc antibody; 37 °C, 1 h, Tris buffer pH 7.5; both purified
[3] = target: GFP-GAL9 (galectin-9) (human) (UniProt O00182); assay: co-IP; HepG2 cells expressing viperin truncated mutants and HA-HBc or GFP-GAL9; lysates precipitated with anti-HA or anti-GFP antibodies, immunoblotting

binding (HaloTag-fused RNF13): binds
Molecule: p62 (SQSTM1) found with HT-RNF13 (from UniProt Q13501 1-440)

binding [1]: binds
Molecule: HaloTag-fused p62 (SQSTM1) (from UniProt Q13501 1-440)

binding [2]: binds
B1: viperin, recombinant (protein, UniProt Q8WXG1 1-361)
chain: MWVLTPAAFAGKLLSVFRQPLSSLWRSLVPLFCWLRATFWLLATKRRKQQLVLRGPDETKEEEEDPPLPTTPTSVNYHFTRQCNYKCGFCFHTAKTSFVLPLEEAKRGLLLLKEAGMEKINFSGGEPFLQDRGEYLGKLVRFCKVELRLPSVSIVSNGSLIRERWFQNYGEYLDILAISCDSFDEEVNVLIGRGQGKKNHVENLQKLRRWCRDYRVAFKINSVINRFNVEEDMTEQIKALNPVRWKVFQCLLIEGENCGEDALREAERFVIGDEEFERFLERHKEVSCLVPESNQKMKDSYLILDEYMRFLNCRKGRKDPSKSILDVGVEEAIKFSGFDEKMFLKRGGKYIWSKADLKLDW

binding [3]: binds
B2: HaloTag-fused viperin (protein, UniProt Q8WXG1 1-361)
chain: B1 chain
